Measured values: the supplement of paper PMC12067093, “Discovery and optimisation of a covalent ligand for TRIM25 and its application to targeted protein ubiquitination” (Chemical Science, 2025)
The other results are listed elsewhere or left out.

The chains behind the UniProt entries cited, without tags or fusion partners. Where a name states a change or a piece, a line headed by the entry shows the natural chain unless it says otherwise.
UniProt Q13129: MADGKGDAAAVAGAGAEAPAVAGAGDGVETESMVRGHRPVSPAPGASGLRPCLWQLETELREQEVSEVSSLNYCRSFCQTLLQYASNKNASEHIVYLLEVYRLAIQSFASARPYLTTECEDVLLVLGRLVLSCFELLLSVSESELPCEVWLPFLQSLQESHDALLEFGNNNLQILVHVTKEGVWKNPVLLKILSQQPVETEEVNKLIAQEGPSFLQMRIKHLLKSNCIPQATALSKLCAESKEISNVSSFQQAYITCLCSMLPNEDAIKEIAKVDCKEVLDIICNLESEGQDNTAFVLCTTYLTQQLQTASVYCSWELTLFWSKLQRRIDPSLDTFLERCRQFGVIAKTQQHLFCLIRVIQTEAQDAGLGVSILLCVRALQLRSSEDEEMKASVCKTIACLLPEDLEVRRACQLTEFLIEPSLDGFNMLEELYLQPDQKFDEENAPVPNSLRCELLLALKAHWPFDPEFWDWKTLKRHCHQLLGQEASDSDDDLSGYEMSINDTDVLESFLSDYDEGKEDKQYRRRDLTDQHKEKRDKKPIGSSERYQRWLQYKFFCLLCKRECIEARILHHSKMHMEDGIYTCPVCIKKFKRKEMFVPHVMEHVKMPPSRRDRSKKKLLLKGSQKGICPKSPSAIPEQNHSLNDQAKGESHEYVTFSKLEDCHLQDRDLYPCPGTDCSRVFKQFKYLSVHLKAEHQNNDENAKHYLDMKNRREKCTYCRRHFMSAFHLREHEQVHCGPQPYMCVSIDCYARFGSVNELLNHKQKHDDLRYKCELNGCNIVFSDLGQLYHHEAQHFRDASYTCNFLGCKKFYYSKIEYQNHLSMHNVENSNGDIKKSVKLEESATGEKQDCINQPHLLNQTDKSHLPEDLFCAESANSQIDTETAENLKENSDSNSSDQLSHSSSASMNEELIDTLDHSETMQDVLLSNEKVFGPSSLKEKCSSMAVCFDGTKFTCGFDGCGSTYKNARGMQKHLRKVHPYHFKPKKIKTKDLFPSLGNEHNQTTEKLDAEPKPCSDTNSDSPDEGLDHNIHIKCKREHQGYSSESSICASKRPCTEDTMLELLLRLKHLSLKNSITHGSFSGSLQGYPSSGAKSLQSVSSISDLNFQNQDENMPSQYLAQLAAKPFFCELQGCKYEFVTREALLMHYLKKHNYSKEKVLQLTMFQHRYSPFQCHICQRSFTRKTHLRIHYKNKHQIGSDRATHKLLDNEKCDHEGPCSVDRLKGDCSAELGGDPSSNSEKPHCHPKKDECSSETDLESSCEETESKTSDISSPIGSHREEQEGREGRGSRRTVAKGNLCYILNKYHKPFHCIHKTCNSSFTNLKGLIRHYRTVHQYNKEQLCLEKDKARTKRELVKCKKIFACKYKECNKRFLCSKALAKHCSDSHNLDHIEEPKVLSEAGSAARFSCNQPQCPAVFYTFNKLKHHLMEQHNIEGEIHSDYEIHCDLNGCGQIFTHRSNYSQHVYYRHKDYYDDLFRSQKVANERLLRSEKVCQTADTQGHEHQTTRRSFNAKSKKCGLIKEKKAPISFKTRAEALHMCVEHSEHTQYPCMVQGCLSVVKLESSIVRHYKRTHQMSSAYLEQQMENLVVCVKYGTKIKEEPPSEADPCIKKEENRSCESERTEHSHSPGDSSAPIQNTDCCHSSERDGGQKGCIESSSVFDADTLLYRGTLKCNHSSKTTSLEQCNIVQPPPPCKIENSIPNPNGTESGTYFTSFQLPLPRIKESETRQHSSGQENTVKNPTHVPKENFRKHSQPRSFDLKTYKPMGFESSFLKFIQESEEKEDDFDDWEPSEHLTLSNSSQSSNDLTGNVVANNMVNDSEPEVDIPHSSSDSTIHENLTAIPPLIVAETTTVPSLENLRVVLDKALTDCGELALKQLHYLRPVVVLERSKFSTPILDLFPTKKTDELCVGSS
UniProt Q05823: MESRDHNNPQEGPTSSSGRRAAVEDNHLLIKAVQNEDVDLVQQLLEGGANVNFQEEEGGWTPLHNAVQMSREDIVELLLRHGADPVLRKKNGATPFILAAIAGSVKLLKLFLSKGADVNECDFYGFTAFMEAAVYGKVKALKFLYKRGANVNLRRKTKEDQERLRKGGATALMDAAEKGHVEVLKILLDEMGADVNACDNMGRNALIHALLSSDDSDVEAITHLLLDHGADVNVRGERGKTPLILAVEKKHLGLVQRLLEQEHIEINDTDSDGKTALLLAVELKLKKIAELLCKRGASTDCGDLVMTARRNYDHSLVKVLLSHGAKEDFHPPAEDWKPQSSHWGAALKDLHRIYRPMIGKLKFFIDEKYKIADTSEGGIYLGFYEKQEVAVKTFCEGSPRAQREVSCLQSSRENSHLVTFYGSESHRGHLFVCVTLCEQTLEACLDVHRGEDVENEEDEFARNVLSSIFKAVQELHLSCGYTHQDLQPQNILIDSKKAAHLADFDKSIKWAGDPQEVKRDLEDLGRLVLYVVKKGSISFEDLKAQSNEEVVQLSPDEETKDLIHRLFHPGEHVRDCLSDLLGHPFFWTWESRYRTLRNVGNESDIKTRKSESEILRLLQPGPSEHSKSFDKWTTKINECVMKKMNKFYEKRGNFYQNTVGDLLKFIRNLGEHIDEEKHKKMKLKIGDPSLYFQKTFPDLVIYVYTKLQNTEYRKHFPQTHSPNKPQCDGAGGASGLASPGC
UniProt O00584, whole entry, looked up: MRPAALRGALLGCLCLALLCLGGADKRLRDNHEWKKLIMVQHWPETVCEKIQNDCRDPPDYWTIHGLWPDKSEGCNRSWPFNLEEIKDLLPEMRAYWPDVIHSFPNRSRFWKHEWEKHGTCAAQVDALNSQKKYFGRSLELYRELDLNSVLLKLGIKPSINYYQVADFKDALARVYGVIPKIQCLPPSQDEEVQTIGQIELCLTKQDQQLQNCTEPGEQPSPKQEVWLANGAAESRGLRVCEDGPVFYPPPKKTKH
UniProt Q9BWE0: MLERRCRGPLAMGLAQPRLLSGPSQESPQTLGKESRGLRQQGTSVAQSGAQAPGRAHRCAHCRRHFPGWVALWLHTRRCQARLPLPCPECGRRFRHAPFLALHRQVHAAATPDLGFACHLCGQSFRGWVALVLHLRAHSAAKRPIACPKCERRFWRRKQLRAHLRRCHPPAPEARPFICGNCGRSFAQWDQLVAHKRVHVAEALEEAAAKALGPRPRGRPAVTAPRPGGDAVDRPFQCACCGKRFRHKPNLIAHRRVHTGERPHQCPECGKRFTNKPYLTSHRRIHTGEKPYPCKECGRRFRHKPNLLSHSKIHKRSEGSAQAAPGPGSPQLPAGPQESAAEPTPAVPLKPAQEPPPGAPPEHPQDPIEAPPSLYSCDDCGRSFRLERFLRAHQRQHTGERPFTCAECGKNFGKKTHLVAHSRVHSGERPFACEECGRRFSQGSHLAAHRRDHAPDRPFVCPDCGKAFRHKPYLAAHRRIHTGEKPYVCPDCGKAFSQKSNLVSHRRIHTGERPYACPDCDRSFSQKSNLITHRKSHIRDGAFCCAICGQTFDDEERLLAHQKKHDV
UniProt Q96AA3: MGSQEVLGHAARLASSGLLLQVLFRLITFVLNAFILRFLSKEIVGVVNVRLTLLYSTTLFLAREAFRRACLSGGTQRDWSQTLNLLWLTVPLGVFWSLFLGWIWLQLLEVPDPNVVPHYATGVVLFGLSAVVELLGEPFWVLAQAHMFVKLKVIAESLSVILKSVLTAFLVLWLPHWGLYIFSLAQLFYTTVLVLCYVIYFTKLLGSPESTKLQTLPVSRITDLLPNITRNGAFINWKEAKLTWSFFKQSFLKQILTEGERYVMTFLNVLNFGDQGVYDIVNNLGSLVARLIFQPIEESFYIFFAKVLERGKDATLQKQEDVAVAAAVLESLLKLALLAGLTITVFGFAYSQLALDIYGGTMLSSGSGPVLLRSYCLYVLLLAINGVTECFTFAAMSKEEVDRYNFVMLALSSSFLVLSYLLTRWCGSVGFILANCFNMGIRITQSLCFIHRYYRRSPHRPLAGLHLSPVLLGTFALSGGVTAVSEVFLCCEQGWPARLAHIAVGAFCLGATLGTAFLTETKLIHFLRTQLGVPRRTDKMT
UniProt Q9Y508: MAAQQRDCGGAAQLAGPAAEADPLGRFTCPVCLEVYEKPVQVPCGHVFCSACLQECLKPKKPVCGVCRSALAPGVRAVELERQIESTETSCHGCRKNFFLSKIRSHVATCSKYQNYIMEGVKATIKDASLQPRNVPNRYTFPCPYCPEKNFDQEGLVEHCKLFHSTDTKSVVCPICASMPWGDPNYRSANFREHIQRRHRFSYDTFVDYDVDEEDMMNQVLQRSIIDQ
UniProt P40938, whole entry, looked up: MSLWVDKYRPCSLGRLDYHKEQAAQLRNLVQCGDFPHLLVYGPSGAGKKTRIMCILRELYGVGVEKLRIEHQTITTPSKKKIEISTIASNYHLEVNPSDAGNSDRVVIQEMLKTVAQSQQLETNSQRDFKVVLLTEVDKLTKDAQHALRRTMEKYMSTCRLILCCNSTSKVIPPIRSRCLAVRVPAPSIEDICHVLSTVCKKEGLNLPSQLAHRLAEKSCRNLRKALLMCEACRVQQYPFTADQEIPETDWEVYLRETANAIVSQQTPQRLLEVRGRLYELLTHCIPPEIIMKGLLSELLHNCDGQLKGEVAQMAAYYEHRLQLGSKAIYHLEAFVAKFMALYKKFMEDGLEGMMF
UniProt Q96DM3: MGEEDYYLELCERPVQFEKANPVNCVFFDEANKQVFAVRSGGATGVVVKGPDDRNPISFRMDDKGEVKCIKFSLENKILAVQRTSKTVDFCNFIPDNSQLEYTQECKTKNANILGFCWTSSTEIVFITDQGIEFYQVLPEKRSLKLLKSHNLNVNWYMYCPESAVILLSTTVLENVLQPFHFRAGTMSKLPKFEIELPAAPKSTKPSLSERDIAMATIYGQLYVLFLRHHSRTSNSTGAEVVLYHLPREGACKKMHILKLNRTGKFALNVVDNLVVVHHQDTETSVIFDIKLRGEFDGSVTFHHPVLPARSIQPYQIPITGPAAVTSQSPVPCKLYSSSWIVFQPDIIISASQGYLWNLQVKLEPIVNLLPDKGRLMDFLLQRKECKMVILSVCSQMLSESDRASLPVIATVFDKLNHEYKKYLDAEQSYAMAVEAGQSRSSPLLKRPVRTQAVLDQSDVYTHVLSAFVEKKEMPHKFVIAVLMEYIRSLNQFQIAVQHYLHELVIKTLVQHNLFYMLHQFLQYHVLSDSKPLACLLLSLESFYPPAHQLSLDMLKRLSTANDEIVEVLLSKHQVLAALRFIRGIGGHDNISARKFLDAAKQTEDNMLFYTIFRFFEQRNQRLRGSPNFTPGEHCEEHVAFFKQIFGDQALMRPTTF
UniProt Q06587: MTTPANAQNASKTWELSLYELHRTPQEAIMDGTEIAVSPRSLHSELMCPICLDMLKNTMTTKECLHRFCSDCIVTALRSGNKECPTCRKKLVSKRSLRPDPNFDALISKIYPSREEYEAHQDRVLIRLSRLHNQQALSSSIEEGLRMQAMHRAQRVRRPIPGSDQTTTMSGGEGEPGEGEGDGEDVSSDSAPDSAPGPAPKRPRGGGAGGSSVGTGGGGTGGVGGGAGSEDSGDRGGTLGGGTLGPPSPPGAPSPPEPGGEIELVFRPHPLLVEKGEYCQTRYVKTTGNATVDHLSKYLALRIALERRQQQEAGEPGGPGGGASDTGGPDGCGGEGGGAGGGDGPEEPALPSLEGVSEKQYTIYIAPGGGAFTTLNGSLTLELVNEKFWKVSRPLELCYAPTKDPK
UniProt Q13546: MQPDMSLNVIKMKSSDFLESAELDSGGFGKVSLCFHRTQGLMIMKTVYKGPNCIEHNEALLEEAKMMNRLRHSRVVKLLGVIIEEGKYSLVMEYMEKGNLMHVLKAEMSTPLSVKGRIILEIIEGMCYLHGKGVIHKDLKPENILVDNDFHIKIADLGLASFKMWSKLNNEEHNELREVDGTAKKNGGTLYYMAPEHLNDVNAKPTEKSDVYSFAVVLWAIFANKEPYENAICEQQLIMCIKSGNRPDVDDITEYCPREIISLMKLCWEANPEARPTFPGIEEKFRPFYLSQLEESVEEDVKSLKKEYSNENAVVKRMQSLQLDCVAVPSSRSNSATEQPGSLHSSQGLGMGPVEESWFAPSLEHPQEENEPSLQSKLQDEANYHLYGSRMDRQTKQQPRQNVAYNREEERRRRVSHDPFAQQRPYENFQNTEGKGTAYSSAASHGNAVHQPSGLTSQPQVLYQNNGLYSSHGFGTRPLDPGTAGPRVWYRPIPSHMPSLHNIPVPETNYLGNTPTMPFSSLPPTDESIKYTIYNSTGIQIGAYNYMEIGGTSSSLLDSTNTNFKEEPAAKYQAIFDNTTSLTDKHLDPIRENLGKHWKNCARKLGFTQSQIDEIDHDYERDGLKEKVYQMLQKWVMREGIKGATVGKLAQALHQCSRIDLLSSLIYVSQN
UniProt P08134, whole entry: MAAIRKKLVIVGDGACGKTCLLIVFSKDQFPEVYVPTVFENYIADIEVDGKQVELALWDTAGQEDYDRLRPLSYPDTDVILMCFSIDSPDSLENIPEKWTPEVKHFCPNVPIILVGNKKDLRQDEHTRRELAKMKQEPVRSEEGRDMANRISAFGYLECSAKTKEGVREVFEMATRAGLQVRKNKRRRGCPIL

Compound: CC1Cc2ccccc2N1C(=O)C1CCCN(C1)C(=O)CCl (mixture of isomers) [TRIM25 ligand 11 (diastereomer mixture)]
Assay: probe-labelled cysteine peptide fold change vs DMSO (competition) (log2 fold change); higher = less target engagement (more negative = stronger competition)
Conditions: THP-1, incubation time: 4 h
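Further: competitive chemoproteomic profiling in live THP-1 cells with an iodoacetamide desthiobiotin (IA-DTB) probe, comparing probe-labelled peptide intensities in compound-treated cells against DMSO-treated controls.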

Target | probe-labelled cysteine peptide fold change (10 µM) | probe-labelled cysteine peptide fold change (50 µM)
RLF_Q13129_1212+1218_CDHEGPCSVDR (UniProt Q13129) | 0.167 | 0.0424
RIN1_Q13671_623_RLPATHCFQHLLR (UniProt Q13671) | -0.0596 | -0.187
RNASEL_Q05823_198_ILLDEMGADVNACDNMGR (UniProt Q05823) | -0.0268 | -0.0752
RMND1_Q9NWS8_409_LQHCMELTDLMR (UniProt Q9NWS8) | -0.043 | 0.0413
RLF_Q13129_584+587_MHMEDGIYTCPVCIK (UniProt Q13129) | 0.00429 | -0.113
RLF_Q13129_227_SNCIPQATALSK (UniProt Q13129) | -0.128 | -0.167
RNASET2_O00584_121_HGTCAAQVDALNSQK (UniProt O00584) | 0.0127 | -0.223
RIOK3_O14730_346_AGIPCPTVVLLKK (UniProt O14730) | -0.187 | -0.0964
RNASEH2A_O75792_50+52_GPVLGPMVYAICYCPLPR (UniProt O75792) | -0.237 | 0.101
RLF_Q13129_1218_CDHEGPCSVDR (UniProt Q13129) | 0.0777 | 0.136
REPIN1_Q9BWE0_269_VHTGERPHQCPECGKR (UniProt Q9BWE0) | -0.0177 | -0.0657
RFT1_Q96AA3_448_ITQSLCFIHR (UniProt Q96AA3) | 0.0645 | 0.201
RNF114_Q9Y508_32_FTCPVCLEVYEK (UniProt Q9Y508) | -0.000616 | -0.075
RLF_Q13129_961_FTCGFDGCGSTYK (UniProt Q13129) | -0.159 | -0.314
RICTOR_Q6R327_906_TGCHLLEVQNIITELCR (UniProt Q6R327) | -0.0688 | -0.0297
RIPOR1_Q6ZS17_289_GLANHVVVGSVSCETK (UniProt Q6ZS17) | -0.0889 | 0.0156
RLF_Q13129_1364_KIFACK (UniProt Q13129) | -0.369 | -0.304
REPIN1_Q9BWE0_520_IHTGERPYACPDCDR (UniProt Q9BWE0) | 0.00925 | 0.0513
RFC3_P40938_285_LYELLTHCIPPEIIMK (UniProt P40938) | 0.168 | -0.117
RMC1_Q96DM3_635_GSPNFTPGEHCEEHVAFFK (UniProt Q96DM3) | -0.0446 | -0.0345

Target | probe-labelled cysteine peptide fold change (10 µM) | probe-labelled cysteine peptide fold change (50 µM)
RLF_Q13129_808_DASYTCNFLGCK (UniProt Q13129) | -0.0307 | -0.117
RECQL4_O94761_897_VCMGHER (UniProt O94761) | -0.0367 | -0.142
RLF_Q13129_557_FFCLLCK (UniProt Q13129) | -0.00387 | 0.168
RING1_Q06587_72_FCSDCIVTALR (UniProt Q06587) | 0.349 | 0.315
RFC3_P40938_32_NLVQCGDFPHLLVYGPSGAGK (UniProt P40938) | 0.175 | -0.0134
RNF114_Q9Y508_110_SHVATCSK (UniProt Q9Y508) | 0.0298 | -0.0162
RENBP_P51606_423_PAPAPSPAPTPACR (UniProt P51606) | 0.0234 | 0.0476
RNASET2_O00584_55_IQNDCRDPPDYWTIHGLWPDK (UniProt O00584) | -0.126 | -0.235
RNASET2_O00584_241_VCEDGPVFYPPPKK (UniProt O00584) | -0.14 | -0.281
RIOK2_Q9BVS4_197_HAVVMELINGYPLCQIHHVEDPASVYDEAMELIVK (UniProt Q9BVS4) | 0.223 | 0.107
RFC1_P35251_822_QVLHNLSMWCAR (UniProt P35251) | 0.0478 | 0.259
RIPK1_Q13546_34_VSLCFHR (UniProt Q13546) | 0.0614 | 0.0917
RHOC_P08134_159_ISAFGYLECSAK (UniProt P08134) | -0.0532 | 0.00186
REPIN1_Q9BWE0_167_CHPPAPEAR (UniProt Q9BWE0) | 0.0404 | 0.261
RGN_Q15493_262_NYSEMYVTCAR (UniProt Q15493) | 0.477 | 0.395
RET_P07949_585_TCPDGHCDVVETQDINICPQDCLR (UniProt P07949) | 0.173 | -0.0304
REXO4_Q9GZR2_382_ILGLQVQQAEHCSIQDAQAAMR (UniProt Q9GZR2) | 0.098 | -0.355
RETSAT_Q6NUM9_547_LHPCVMASLR (UniProt Q6NUM9) | -0.202 | -0.152
RFTN1_Q14699_494_AGDMGNCVSGQQQEGGVSEEMK (UniProt Q14699) | -0.258 | -0.227
